Measurements reported in PubChem BioAssay AID652259 (Drosophila RNAi Screening Center, 2013)
Screen: 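Genome-wide hunt for genes that control Wingless pathway activity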 (primary screen). System: Drosophila clone 8 imaginal disc epithelial cells. Reagents: long dsRNA against Drosophila genes. Treatment: pathway stimulated by co-transfected Wingless expression plasmid. Measured: 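Firefly luciferase from a tcf-site Wingless reporter, measured alongside co-transfected Renilla luciferase that tracks transfection; pathway stimulated by a Wingless plasmid; the firefly-to-Renilla ratio is not deposited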. Scale: firefly reporter light: higher = more Wg reporter light, before normalisation; Renilla control light: higher = more transfected or surviving cells. Call rule: 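a knock-down is a candidate when at least two out of four statistical tests show it departing from its plate mean; one test alone signals a weak candidate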. Calls: active = candidate regulator (raises or lowers reporter); inactive = not a candidate.
The screen tested about 22,000 reagents; shown is an unselected part of those that have a named target and a result. Over the whole deposit, 233 (1.1%) got an active call. 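Light values are raw, unnormalised plate reads; the ratio scores behind the reporter calls were not deposited.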 Unmarked entries are inactive. A plus sign joins genes that one reagent is predicted to hit. Reagent sequences are not shown. Not stated in the record: the amount of reagent, the time to read-out, the dose of the treatment.

target	dsRNA	reporter change call, replicate 1	firefly reporter light, replicate 1	firefly reporter light, replicate 2	Renilla control light, replicate 1	Renilla control light, replicate 2
CG17883	DRSC07838		3936		2224	
Gs1 (Glutamine synthetase 1)	DRSC00753		13961		3723	
CG34125	DRSC00850		19800		8167	
CG13223	DRSC06344		4819		2116	
CG30375	DRSC06834		2679	4776	630	2267
CAH16 (Carbonic anhydrase 16)	DRSC15371		5192		2763	
CG6236	DRSC15999		4313		1696	
CG11617	DRSC00321		5212	8507	1936	3826
CG11617	DRSC21786		5.87e5	6.75e5	2.49e5	2.27e5
CG8051	DRSC20077		10868		9756	
CG11425	DRSC11657		14938		5328	
sip2 (septin interacting protein 2)	DRSC03154		2908	7472	1035	1719
bdl (borderless)	DRSC00271		10674		5728	
CG15343	DRSC18028		22211		12592	
CG12540	DRSC19471		24304		10432	
CG11504	DRSC14318		3461	3426	1266	1014
CycH (Cyclin H)	DRSC11861		29653		8422	
CycH (Cyclin H)	DRSC21308		5.65e5	5.63e5	2.06e5	1.59e5
MstProx + Mst84Da	DRSC12597		14579		4121	
E23 (Early gene at 23)	DRSC00425		2040	4231	316	397
E23 (Early gene at 23)	DRSC00593		2500	4320	995	1329
Sr-CII (Scavenger receptor class C, type II)	DRSC07557		5040		2209	
CG13998	DRSC02330		2370	6397	968	1185
Ir21a + asRNA:CR43609	DRSC00528		2696	6720	1058	2338
CG30088	DRSC21764		2.76e5	2.82e5	1.16e5	1.15e5
CG7668	DRSC10901		8128		3286	
CG6733	DRSC16103		22448		16857	
Pex16 (Peroxin 16)	DRSC11750		4165		1696	
CG31249	DRSC16248		13040		2214	
mthl3 (methuselah-like 3)	DRSC06997		14756		4791	
CG3328	DRSC04357		10032		3424	
topi (matotopetli)	DRSC16431		24951		3563	
Arl6IP1 (ADP-ribosylation factor-like 6 interacting protein 1)	DRSC14231		14064		2932	
uri (unconventional prefoldin RPB5 interactor)	DRSC04111		10802		2688	
CG13227	DRSC06347		7447	9.40e5	4304	5.20e5
Obp73a (Odorant-binding protein 73a)	DRSC09907		8316		2963	
CG17026	DRSC10237		8525	7.19e5	3924	3.13e5
Cpr49Ae (Cuticular protein 49Ae)	DRSC07201		9634		2290	
CG15373	DRSC19663		23042		10236	
CG17564	DRSC02626		4922	18956	960	3476
CG34315 + Orc3	DRSC07642		5898		2107	
Adck1 (aarF domain containing kinase 1)	DRSC04394		11189		2571	
EbpIII (Ejaculatory bulb protein III)	DRSC04638		1849	8164	432	2165
CG30098	DRSC05605		16797		13187	
Sys1 (Sys1 golgi trafficking protein)	DRSC14372		15464		3925	
Ho (Heme oxygenase)	DRSC14939		7457		2631	
moon (moonshiner)	DRSC19497		17723		9009	
Actn3 (alpha actinin 3)	DRSC14106		15933		1968	
LysD + LysC (retired record)	DRSC08674		4816		1985	
LysD + LysC (retired record)	DRSC22743		7.23e5	7.73e5	1.78e5	1.21e5
Lpin (Lipin)	DRSC07241		4128		1395	
CG17806	DRSC15276		3480	7640	1552	2075
TwdlJ (TweedleJ)	DRSC15812		7184		3897	
CG17005	DRSC02556		2801	5992	832	2762
hop (hopscotch)	DRSC20340		19285		8779	
Strump (Strumpellin)	DRSC09872		6955		2528	
Pdfr (Pigment-dispersing factor receptor)	DRSC18614		9633		12083	
Nadk1b (NAD kinase 1b)	DRSC05432		23948		19847	
Nadk1b (NAD kinase 1b)	DRSC06964		15789		4754	
Nadk1b (NAD kinase 1b)	DRSC06965		4987		1722	
CG3419 (retired record)	DRSC04368		2247	5923	666	2108
CG3419 (retired record)	DRSC04369		2956	5773	838	2326
Esyt2 (Extended synaptotagmin-like protein 2)	DRSC16082		2390	4171	1191	1292
Cpr78Ca (Cuticular protein 78Ca)	DRSC11651		17104		6064	
ZC3H3	DRSC10696		1138	2788	315	653
CSN8 (COP9 signalosome subunit 8)	DRSC02257		14170		5024	
CG32249	DRSC08101		2449		1415	
CG32249	DRSC08177		1787	10966	1574	3909
CG32249	DRSC22444		5.03e5	6.40e5	2.10e5	85408
CG15202	DRSC19649		22842		11225	
CG8135 + BBIP1	DRSC12739		4410		1785	
CG8135 + BBIP1	DRSC16384		12230		3579	
Dbp80 (Dead box protein 80)	DRSC22034		7.09e5	7.89e5	3.22e5	3.34e5
eEF1gamma (eukaryotic translation elongation factor 1 gamma)	DRSC16659		6619		2320	
CG11703	DRSC14356		3302	6219	1926	2244
Rbp4 (RNA-binding protein 4)	DRSC16818		12891		2405	
eIF4E7 (eukaryotic translation initiation factor 4E7)	DRSC17782		21020		15761	
eIF4E7 (eukaryotic translation initiation factor 4E7)	DRSC18623		17138		10652	
RpS10b (Ribosomal protein S10b)	DRSC19561		18145		10053	
CG13288	DRSC09962		2052	7142	1712	3510
Kcmf1 (Potassium channel modulatory factor 1)	DRSC14459		3820		1884	
Tomosyn	DRSC19365		2909	7136	644	1475
Tomosyn	DRSC19692		23156		10945	
Tomosyn	DRSC19782		1589	7056	803	2490
Tomosyn	DRSC19842		34411		16640	
CG9205	DRSC08642		12402		4267	
Uba3 (Ubiquitin-like activating enzyme 3)	DRSC06377		10709		3642	
Gr59d (Gustatory receptor 59d)	DRSC22553		6.28e5	6.38e5	2.65e5	2.60e5
CG9826	DRSC04570		4631	5609	1269	2747
CSN3 (COP9 signalosome subunit 3)	DRSC11859	Wg reporter activity raised (active)	36787		3818	
CG15464 (retired record)	DRSC18047		23664		11509	
CG15464 (retired record)	DRSC22086		6.09e5	6.53e5	2.13e5	2.46e5
CG42591	DRSC08905		2392		433	

Active calls, of those listed so far:
target	dsRNA	reporter change call, replicate 1	firefly reporter light, replicate 1	firefly reporter light, replicate 2	Renilla control light, replicate 1	Renilla control light, replicate 2
CSN3 (COP9 signalosome subunit 3)	DRSC11859	Wg reporter activity raised (active)	36787		3818	
